Laboratory results published in PMC6515157.
These are yes or no findings as the source states them, for the method shown. Some entries that bind do so weakly or less than the wild type.

T1: AG73, synthetic peptide based on the laminin-α1 chain
T1 sequence (peptide): RKRLQVQLSIRT


Biological target: T1, AG73, synthetic peptide based on the laminin-α1 chain
Assay: ELISA; solid-phase assay: AG73 dried onto 96-well plates (100 ug/ml in H2O), blocked with 3% heat-denatured BSA, MDA-231 cell lysate (2 mg/ml) in 3% BSA overnight at 4°C; bound Sdc detected with anti-Sdc antibodies and HRP secondary, 450 nm; also with lysates of NS1, NS2 and Sdc 2 KD cells; inhibited by heparin (20 mg/ml) and by trypsin pretreatment of the cells; only the target purified

Binder	binding
syndecan 1 (receptor, UniProt P18827 23-310) QIVATNLPPEDQDGSGDDSDNFSGSGAGALQDITLSQQTPSTWKDTQLLTAIPTSPEPTGLEATAASTSTLPAGEGPKEGEAVVLPEVEPGLTAREQEATPRPRETTQLPTTHLASTTTATTAQEPATSHPHRDMQPGHHETSTPAGPSQADLHTPHTEDGGPSATERAAEDGASSQLPAAEGSGEQDFTFETSGENTAVVAVEPDRRNQSPVDQGATGASQGLLDRKEVLGGVIAGGLVGLIFAVCLVGFMLYRMKKKDEGSYSLEEPKQANGGAYQKPTKQEEFYA	binds
syndecan 4 (receptor, UniProt P31431 19-198) ESIRETEVIDPQDLLEGRYFSGALPDDEDVVGPGQESDDFELSGSGDLDDLEDSMIGPEVVHPLVPLDNHIPERAGSGSQVPTEPKKLEENEVIPKRISPVEESEDVSNKVSMSSTVQGSNIFERTEVLAALIVGGIVGILFAVFLILLLMYRMKKKDEGSYDLGKKPIYKKAPTNEFYA	binds
